# Test results from the supplement of paper PMC8728848.
# Some of the results follow.
# B1: AT5G24760(45) (Arabidopsis thaliana), Q8LEB2 (protein)
# chain: MSASSSSFEQPQVITCNAAVAWRAGEPLVMEEVEVSPPQPLEIRIKVVCTSLCRSDLSAWESQSLLPRIFGHEAAGIVESIGEGVTEFEKGDHVLAVFTGECGSCRHCISGKSNMCQVLGMERKGLMHSDQKTRFSIKGKPVYHYCAVSSFSEYTVVHSGCAVKVDPLAPLHKICLLSCGVAAGLGAAWNVADVQKGSSVVIFGLGTVGLSVAQGAKLRGAAQILGVDINPAKAEQAKTFGVTDFINSNDLSEPIPQVIKRMTGGGADFSFECVGDTGIATTALQSCSDGWGMTVTLGVPKAKPEVSAHYGLFLSGKSLKGTLFGGWKPKSDLPSLIDKYMNKEIMIDEFITHNLSFDEINKAFVLMREGKCLRCVLHMPK
# Legend:
# Assay in all cases: glycan array binding signal (z-score within array); higher = stronger binding
# Conditions in all cases: glycan notation: IUPAC condensed, linker removed
# [1] = molecular target: Fuc(a1-2)[Gal(a1-3)]Gal(b1-4)[Fuc(a1-3)]GlcNAc(b1-3)GalNAc
# Outline: (§1)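 The binding signal is a Z-score computed within each array and averaged over linkers. Arrays of the same protein sequence at different concentrations or buffers were also averaged together. Data originate from 3228 arrays in the Consortium for Functional Glycomics database, kept only where the protein sequence was available.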
# [2] = molecular target: Fuc(a1-2)[Gal(a1-4)]Gal(b1-4)GlcNAc
# Outline: as §1
# [3] = molecular target: Fuc(a1-2)[GalNAc(a1-3)]Gal
# Outline: as §1
# [4] = molecular target: Fuc(a1-2)[GalNAc(a1-3)]Gal(b1-3)GalNAc(a1-3)[Fuc(a1-2)]Gal(b1-4)GlcNAc
# Outline: as §1
# [5] = molecular target: Fuc(a1-2)[GalNAc(a1-3)]Gal(b1-3)GalNAc(b1-3)Gal(a1-4)Gal(b1-4)Glc
# Outline: as §1
# [6] = molecular target: Fuc(a1-2)[GalNAc(a1-3)]Gal(b1-3)GlcNAc
# Outline: as §1
# [7] = molecular target: Fuc(a1-2)[GalNAc(a1-3)]Gal(b1-3)GlcNAc(b1-2)Man(a1-3)[Fuc(a1-2)[GalNAc(a1-3)]Gal(b1-3)GlcNAc(b1-2)Man(a1-6)]Man(b1-4)GlcNAc(b1-4)GlcNAc
# Outline: as §1
# [8] = molecular target: Fuc(a1-2)[GalNAc(a1-3)]Gal(b1-3)GlcNAc(b1-2)Man(a1-3)[Fuc(a1-2)[GalNAc(a1-3)]Gal(b1-3)GlcNAc(b1-2)Man(a1-6)]Man(b1-4)GlcNAc(b1-4)[Fuc(a1-6)]GlcNAc
# Outline: as §1
# [9] = molecular target: Fuc(a1-2)[GalNAc(a1-3)]Gal(b1-3)GlcNAc(b1-3)GalNAc
# Outline: as §1
# [10] = molecular target: Fuc(a1-2)[GalNAc(a1-3)]Gal(b1-3)GlcNAc(b1-6)GalNAc
# Outline: as §1
# [11] = molecular target: Fuc(a1-2)[GalNAc(a1-3)]Gal(b1-4)Glc
# Outline: as §1
# [12] = molecular target: Fuc(a1-2)[GalNAc(a1-3)]Gal(b1-4)GlcNAc
# Outline: as §1
# [13] = molecular target: Fuc(a1-2)[GalNAc(a1-3)]Gal(b1-4)GlcNAc(b1-2)Man
# Outline: as §1
# [14] = molecular target: Fuc(a1-2)[GalNAc(a1-3)]Gal(b1-4)GlcNAc(b1-2)Man(a1-3)[Fuc(a1-2)[GalNAc(a1-3)]Gal(b1-4)GlcNAc(b1-2)Man(a1-6)]Man(b1-4)GlcNAc(b1-4)GlcNAc
# Outline: as §1
# [15] = molecular target: Fuc(a1-2)[GalNAc(a1-3)]Gal(b1-4)GlcNAc(b1-2)Man(a1-3)[Fuc(a1-2)[GalNAc(a1-3)]Gal(b1-4)GlcNAc(b1-2)Man(a1-6)]Man(b1-4)GlcNAc(b1-4)[Fuc(a1-6)]GlcNAc
# Outline: as §1
# [16] = molecular target: Fuc(a1-2)[GalNAc(a1-3)]Gal(b1-4)GlcNAc(b1-3)Gal(b1-4)GlcNAc
# Outline: as §1
# [17] = molecular target: Fuc(a1-2)[GalNAc(a1-3)]Gal(b1-4)GlcNAc(b1-3)Gal(b1-4)GlcNAc(b1-3)Gal(b1-4)GlcNAc
# Outline: as §1
# [18] = molecular target: Fuc(a1-2)[GalNAc(a1-3)]Gal(b1-4)GlcNAc(b1-3)GalNAc
# Outline: as §1
# [19] = molecular target: Fuc(a1-2)[GalNAc(a1-3)]Gal(b1-4)GlcNAc(b1-3)[Fuc(a1-2)[GalNAc(a1-3)]Gal(b1-4)GlcNAc(b1-6)]GalNAc
# Outline: as §1
# [20] = molecular target: Fuc(a1-2)[GalNAc(a1-3)]Gal(b1-4)GlcNAc(b1-6)GalNAc
# Outline: as §1
# [21] = molecular target: Fuc(a1-2)[GalNAc(a1-3)]Gal(b1-4)[Fuc(a1-3)]GlcNAc
# Outline: as §1
# [22] = molecular target: Fuc(a1-2)[GalNAc(a1-3)]Gal(b1-4)[Fuc(a1-3)]GlcNAc(b1-3)GalNAc
# Outline: as §1
# [23] = molecular target: Fuc(a1-2)[GalNAc(a1-4)]Gal(b1-4)GlcNAc
# Outline: as §1
# [24] = molecular target: Fuc(a1-2)[GalNAc(b1-3)]Gal
# Outline: as §1
# [25] = molecular target: Fuc(a1-3)GlcNAc
# Outline: as §1
# [26] = molecular target: Fuc(a1-3)[Gal(b1-4)]Glc6S
# Outline: as §1
# [27] = molecular target: Fuc(a1-3)[Gal(b1-4)]GlcNAc
# Outline: as §1
# [28] = molecular target: Fuc(a1-3)[Gal(b1-4)]GlcNAc(b1-2)Man
# Outline: as §1
# [29] = molecular target: Fuc(a1-3)[Gal(b1-4)]GlcNAc(b1-2)Man(a1-3)[Fuc(a1-3)[Gal(b1-4)]GlcNAc(b1-2)Man(a1-6)]Man(b1-4)GlcNAc(b1-4)GlcNAc
# Outline: as §1
# [30] = molecular target: Fuc(a1-3)[Gal(b1-4)]GlcNAc(b1-2)Man(a1-3)[Fuc(a1-3)[Gal(b1-4)]GlcNAc(b1-2)Man(a1-6)]Man(b1-4)GlcNAc(b1-4)[Fuc(a1-6)]GlcNAc
# Outline: as §1
# [31] = molecular target: Fuc(a1-3)[Gal(b1-4)]GlcNAc(b1-3)Gal(b1-3)[Fuc(a1-4)]GlcNAc
# Outline: as §1
# [32] = molecular target: Fuc(a1-3)[Gal(b1-4)]GlcNAc(b1-3)Gal(b1-4)[Fuc(a1-3)]GlcNAc
# Outline: as §1
# [33] = molecular target: Fuc(a1-3)[Gal(b1-4)]GlcNAc(b1-3)Gal(b1-4)[Fuc(a1-3)]GlcNAc(b1-3)Gal(b1-4)[Fuc(a1-3)]GlcNAc
# Outline: as §1
# [34] = molecular target: Fuc(a1-3)[Gal(b1-4)]GlcNAc(b1-3)GalNAc
# Outline: as §1
# [35] = molecular target: Fuc(a1-3)[Gal(b1-4)]GlcNAc(b1-6)GalNAc
# Outline: as §1
# [36] = molecular target: Fuc(a1-3)[Gal(b1-4)]GlcNAc(b1-6)[Gal(b1-3)GlcNAc(b1-3)]Gal(b1-4)Glc
# Outline: as §1
# [37] = molecular target: Fuc(a1-3)[Gal(b1-4)]GlcNAc6S
# Outline: as §1
# [38] = molecular target: Fuc(a1-3)[Gal3S(b1-4)]Glc
# Outline: as §1
binder,measurement,setting,value
B1,glycan array binding signal (z-score),[1],1.05
same,glycan array binding signal (z-score),[2],-0.328
same,glycan array binding signal (z-score),[3],-0.273
same,glycan array binding signal (z-score),[4],0.048
same,glycan array binding signal (z-score),[5],-0.313
same,glycan array binding signal (z-score),[6],-0.182
same,glycan array binding signal (z-score),[7],-0.135
same,glycan array binding signal (z-score),[8],-1.04
same,glycan array binding signal (z-score),[9],3.83
same,glycan array binding signal (z-score),[10],-0.586
same,glycan array binding signal (z-score),[11],0.375
same,glycan array binding signal (z-score),[12],-0.657
same,glycan array binding signal (z-score),[13],-0.179
same,glycan array binding signal (z-score),[14],-0.164
same,glycan array binding signal (z-score),[15],1.92
same,glycan array binding signal (z-score),[16],0.254
same,glycan array binding signal (z-score),[17],-0.1
same,glycan array binding signal (z-score),[18],-0.245
same,glycan array binding signal (z-score),[19],-0.246
same,glycan array binding signal (z-score),[20],-0.654
same,glycan array binding signal (z-score),[21],1.4
same,glycan array binding signal (z-score),[22],6.82
same,glycan array binding signal (z-score),[23],-0.406
same,glycan array binding signal (z-score),[24],-0.293
same,glycan array binding signal (z-score),[25],0.356
same,glycan array binding signal (z-score),[26],-0.176
same,glycan array binding signal (z-score),[27],0.196
same,glycan array binding signal (z-score),[28],-0.611
same,glycan array binding signal (z-score),[29],0.158
same,glycan array binding signal (z-score),[30],0.387
same,glycan array binding signal (z-score),[31],-0.49
same,glycan array binding signal (z-score),[32],0.161
same,glycan array binding signal (z-score),[33],-0.824
same,glycan array binding signal (z-score),[34],2.37
same,glycan array binding signal (z-score),[35],1.65
same,glycan array binding signal (z-score),[36],0.059
same,glycan array binding signal (z-score),[37],0.092
same,glycan array binding signal (z-score),[38],-0.582

# 2 records picked at random from the list so far:
binder,measurement,setting,value
B1,glycan array binding signal (z-score),[16],0.254
same,glycan array binding signal (z-score),[13],-0.179
